Results are given in words; binding and its absence hold for the method and conditions named. In cells and extracts the contact can be indirect. A yes stands for co-enrichment or nearness to the bait. Other partners may have been found. Tags and fused reporters may be left off the sequences shown.

The target of the test is T1, Flag-RIG-I (retinoic acid-inducible gene I), O95786.
T1 chain: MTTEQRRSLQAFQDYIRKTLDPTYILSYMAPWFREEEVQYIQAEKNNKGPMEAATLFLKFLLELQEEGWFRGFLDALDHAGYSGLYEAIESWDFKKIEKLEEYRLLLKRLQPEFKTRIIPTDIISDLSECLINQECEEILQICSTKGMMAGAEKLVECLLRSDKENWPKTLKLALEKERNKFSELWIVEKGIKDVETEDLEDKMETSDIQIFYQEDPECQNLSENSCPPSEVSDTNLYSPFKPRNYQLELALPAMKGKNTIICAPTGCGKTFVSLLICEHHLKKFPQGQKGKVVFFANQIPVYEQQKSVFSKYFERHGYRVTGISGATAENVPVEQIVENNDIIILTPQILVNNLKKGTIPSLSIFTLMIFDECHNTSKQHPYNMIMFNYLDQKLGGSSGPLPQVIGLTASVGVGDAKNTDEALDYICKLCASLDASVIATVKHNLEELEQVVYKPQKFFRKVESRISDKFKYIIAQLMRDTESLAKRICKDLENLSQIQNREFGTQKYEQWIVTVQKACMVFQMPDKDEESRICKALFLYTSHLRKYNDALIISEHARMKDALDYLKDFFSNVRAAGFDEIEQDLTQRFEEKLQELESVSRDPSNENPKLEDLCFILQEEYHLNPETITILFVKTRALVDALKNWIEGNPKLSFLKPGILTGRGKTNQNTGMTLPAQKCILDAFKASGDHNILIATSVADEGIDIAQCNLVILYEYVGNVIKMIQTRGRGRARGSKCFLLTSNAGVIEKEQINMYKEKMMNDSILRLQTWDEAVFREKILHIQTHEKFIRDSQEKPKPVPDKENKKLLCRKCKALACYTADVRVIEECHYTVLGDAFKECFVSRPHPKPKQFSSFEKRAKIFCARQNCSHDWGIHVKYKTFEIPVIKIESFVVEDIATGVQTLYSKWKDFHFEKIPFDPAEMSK
The experiment in a line: affinity purification with mass spectrometry; immunoprecipitates of Flag-tagged RIG-I or TBK1 from HEK293T co-transfected with or without GSDMD-CT; SDS-PAGE bands, trypsin, LC-MS/MS against Swissprot_Human. The conditions noted are these: remark: other sources report otherwise.

B1: endogenous TRIM28 (Tripartite motif-containing 28), Q13263 1-835 (enzyme)
chain: MAASAAAASAAAASAASGSPGPGEGSAGGEKRSTAPSAAASASASAAASSPAGGGAEALELLEHCGVCRERLRPEREPRLLPCLHSACSACLGPAAPAAANSSGDGGAAGDGTVVDCPVCKQQCFSKDIVENYFMRDSGSKAATDAQDANQCCTSCEDNAPATSYCVECSEPLCETCVEAHQRVKYTKDHTVRSTGPAKSRDGERTVYCNVHKHEPLVLFCESCDTLTCRDCQLNAHKDHQYQFLEDAVRNQRKLLASLVKRLGDKHATLQKSTKEVRSSIRQVSDVQKRVQVDVKMAILQIMKELNKRGRVLVNDAQKVTEGQQERLERQHWTMTKIQKHQEHILRFASWALESDNNTALLLSKKLIYFQLHRALKMIVDPVEPHGEMKFQWDLNAWTKSAEAFGKIVAERPGTNSTGPAPMAPPRAPGPLSKQGSGSSQPMEVQEGYGFGSGDDPYSSAEPHVSGVKRSRSGEGEVSGLMRKVPRVSLERLDLDLTADSQPPVFKVFPGSTTEDYNLIVIERGAAAAATGQPGTAPAGTPGAPPLAGMAIVKEEETEAAIGAPPTATEGPETKPVLMALAEGPGAEGPRLASPSGSTSSGLEVVAPEGTSAPGGGPGTLDDSATICRVCQKPGDLVMCNQCEFCFHLDCHLPALQDVPGEEWSCSLCHVLPDLKEEDGSLSLDGADSTGVVAKLSPANQRKCERVLLALFCHEPCRPLHQLATDSTFSLDQPGGTLDLTLIRARLQEKLSPPYSSPQEFAQDVGRMFKQFNKLTEDKADVQSIIGLQRFFETRMNEAFGDTKFSAVLVEPPPMSLPGAGLSSQELSGGPGDGP
On to B1, for which the binding result is on record as “binds”.
